Test results taken from US7528160B2, “Fused heterocyclic derivatives as PPAR modulators” (Eli Lilly and Company, priority 2003, dated 2009).
At least one compound was matched to its structure with a doubt left.

Test system: Male Syrian hamsters
Test: LDL-cholesterol, total-cholesterol and triglyceride lowering effect in hypercholesterolemic hamsters
Assay type: in vivo
Details: 200 mg/kg by gavage daily for 14 days, compared to vehicle

In the case of `CC(C)OC(=O)C(C)(C)Oc1ccc(C(=O)c2ccc(Cl)cc2)cc1` [fenofibrate], the “reduction in total cholesterol and triglyceride levels” value is reported as “did not show significant efficacy”.
